Experimental findings from paper PMC11212424 are described below.

Results are given in words; binding and its absence hold for the method and conditions named. Binding seen in cells or lysates may run through a third protein. Binding can be weak; no strength is given.

In the assay the target is GST-WW (WW domain of YAP). Kind of assay: pull-down; GST fusion proteins from E. coli held on glutathione-agarose beads, incubated 12 h with in vitro transcribed/translated product (rabbit reticulocyte lysate); western blot; only the target purified. A general note: Immunoblotting shows a protein as a band on a membrane.

B1: in vitro-translated Tudor-SN (protein, UniProt Q66X93 1-909)
chain: MASAQSSGSSGGPAVPTVQRGIVKMVLSGCAIIVRGQPRGGPPPERQINLSNIRAGNLARRAAATQPDGKDTPDEPWAFPAREFLRKKLIGKEVCFTIENKTPQGREYGMIYLGKDTNGENIAESLVAEGLASRREGMRANNPEQNRLSECEEQAKASKKGMWSEGNGSHTIRDLKYTIENPRHFVDSHHQKPVNAIIEHVRDGSVVRALLLPDHYLVTVMLSGIKCPTFRRETDGSETPEPFAAEAKFFTESRLLQRDVQIILESCHNQNILGTILHPNGNITELLLKEGFARCVDWSIAVYTRGAEKLRAAERFAKERRLRIWRDYVPPTANLDQKDKQFVAKVMQVLNADAIVVKLNSGDYKTIHLSSIRPPRLEGDNIQDKNKKLRPLYDIPYMFEAREFLRKKLIGKKVSVTVDYIRPASPATETVPAFSERTCATVTIGGINIAEALVSKGLATVIRYRQDDDQRSSHYDELLAAEARAIKNGKGLHSKKEVPIHRVADISGDTQKAKQFLPFLQRAGRSEAVVEYVFSGSRLKLYLPKETCLITFLLAGIECPRGARNLPGLVQEGEPFSEEATLFTKELVLQREVEVEVESMDKAGNFIGWLHMDGANLSVLLVEHALSKVHFTAERSAYYKPLLSAEEAAKQRKEKVWAHYEEQPVEEVMPVLEEKERSASYKPVFVTEITDDLHFYVQDVETGTQLEKLMENMRSDISSHPPVEGAYAPRRGEFCIAKFVDGEWYRARVEKVESPAKVHVFYIDYGNREILPSTRLGALPPAFSTRVLPAQATEYAFAFIQVPQDEDARTDAVDSVVRDIQNTQCLLNVEHLSASCPHVTLQFADSKGDVGLGLVKEGLVMVEVRKEKQFQKVITEYLNAQESAKSARLNLWRYGDFRADDADEFGYSR
For B1, the binding result is “binds”.
